In US20140227280A1 (CENTRE NATIONAL DE LA RECHERCHE SCIENTIFIQUE, published 2014):
Results are given in words; binding and its absence hold for the method and conditions named. Binding seen in cells or lysates may run through a third protein. Some binding calls cover weakened binding; strength is not graded here.

Legend:
[1] = biological target: mouse MCM9 protein (mouse); experiment: co-immunoprecipitation (summary in the example's discussion)
[2] = biological target: mouse MCM9 protein (mouse); experiment: co-immunoprecipitation (summary in the example's introduction)
[3] = biological target: mouse MCM9 protein (mouse); experiment: co-immunoprecipitation from mouse testes extracts (legend of FIGS. 18A-C)
[4] = biological target: mouse MCM9 protein (mouse); experiment: reciprocal co-immunoprecipitation from mouse testes extracts, western blot

Measured: binding

B1: mouse MCM8 protein (other)
chain: MSGAYRGRGFGRGRFQSWKRGRGGGNFSGRWRERENRVDLNEASGKHASAQASQPLLQQSTLDQFIPYKGWKLYFSEVYSNNSPFIEKIQAFEKFFTRHIDLYDKDEIERKGSILVDFKELTKADEITNLIPDIENALRDAPEKTLACMGLAIHQVLTKDLERHAAELQAQEGLSNGGETMVNVPHIYARVYNYEPLTHLKNIRATCYGKYISIRGTVVRVSNIKPLCTNMAFQCAACGEIQSFPLPDGKYTLPTKCPVPACRGRSFAPLRSSPLTVTLDWQLIKIQELMSDAQREAGRIPRTIECELVHDLVDSCVPGDTVTVTGIVKVSNSEEGSRNKNDKCMFLLYIEANSVSNSKGPKAQTAEDGCKHGTLMEFSLKDLYAIREIQAEENLLKLVVNSLCPVIFGHELVKAGLTLALFGGSQKYADDKNRIPIRGDPHVLIVGDPGLGKSQMLQAACNVAPRGVYVCGNTTTSSGLTVTLSKDSSSGDFALEAGALVLGDQGICGIDEFDKMGNQHQALLEAMEQQSISLAKAGVVCSLPARTSIVAAANPVGGHYNKARTVSENLKMGSALLSRFDLVFILLDTPNEQHDHLLSEHVIAIRAGKQKAVSSATVTRVLSQDSNTSVLEVVSEKPLSERLKVAPGEQTDPIPHQLLRKYIGYARQYVHPRLSTDAAQALQDFYLELRKQSQRVGSSPITTRQLESLIRLTEARARLELREEATREDAEDIIEIMKHSMLGTYSDEFGNLDFERSQHGSGMSNRSTAKRFISALNSIAERTYNNIFQYHQLRQIAKELNIQVADFENFIGSLNDQGYLLKKGPKIYQLQTM
notes: Endogenous protein in mouse testes extracts and MEF cell extracts
binds: [1] | [2] | [3] | [4]
